Source: US20260022246A1, “COLORING AGENT COMPOSITION, FILM, OPTICAL FILTER, AND NEAR INFRARED ABSORBING COMPOUND” (FUJIFILM Corporation, priority 2023, published 2026)

Test: Evaluation of kneading: transmittance at 1,150 nm of melt-kneaded resin film
Assay type: physicochemical
Settings: film 0.15 mm; for Evaluation of transmittance at wavelength of 1150 nm, Acrylic: acrylic resin 12.0 g, melt-kneading 180° C., hot press 160° C.; for Evaluation of transmittance at wavelength of 1150 nm, Polycarbonate: polycarbonate resin 12.0 g, melt-kneading 260° C., hot press 230° C.; for Evaluation of transmittance at wavelength of 1150 nm, Polystyrene: polystyrene resin 12.0 g, melt-kneading 200° C., hot press 180° C.
Protocol: A resin composition, which was a kneaded material of the specific compound or the comparative compound and a resin, was prepared, and the following kneading evaluation was performed.
The specific compounds and comparative compounds shown in Table 3 below were weighed in the contents shown in Table 3, and a sample obtained by shaking and mixing 12.0 g of the resin shown in Table 3 was prepared. A polycarbonate resin (indicated as Polycarbonate in Table 3), a polystyrene resin, and an acrylic resin were used as the resin. In Table 3, the polycarbonate resin is indicated as Polycarbonate, the polystyrene resin is indicated as Polystyrene, and the acrylic resin is indicated as Acrylic.
The obtained sample was put into a supply port of a biaxial kneader (Labo Plastomill, manufactured by Toyo Seiki Seisaku-sho, Ltd.) and subjected to melt-kneading to obtain a resin composition as a kneaded material. The obtained resin composition was pressed using a heat press machine to obtain a resin film having a thickness of 0.15 mm.
In a case where a polycarbonate resin (SD PORYCA (registered trademark) 301-10, manufactured by Sumika Polycarbonate Co., Ltd.) was used as the resin, the melt-kneading temperature was set to 260° C. and the hot press temperature was set to 230° C.
In a case where a polystyrene resin (manufactured by Sigma-Aldrich Co. LLC) was used as the resin, the melt-kneading temperature was set to 200° C. and the hot press temperature was set to 180° C.
In a case where an acrylic resin (G1000, manufactured by Kuraray Co., Ltd.) was used as the resin, the melt-kneading temperature was set to 180° C. and the hot press temperature was set to 160° C.
A transmittance of the obtained resin film at a wavelength of 1,150 nm was measured with a spectrophotometer, and the measured value was evaluated according to the following standard. In Table 3, it is described in “Evaluation of transmittance at wavelength of 1150 nm”. As the transmittance is lower, the near infrared blocking property is better.
• A: transmittance at a wavelength of 1,150 nm was less than 10%. • B: transmittance at a wavelength of 1,150 nm was 10% or more and less than 50%. • C: transmittance at a wavelength of 1,150 nm was 50% or more.

| SMILES | Evaluation of transmittance at wavelength of 1150 nm, Acrylic | Evaluation of transmittance at wavelength of 1150 nm, Polycarbonate | Evaluation of transmittance at wavelength of 1150 nm, Polystyrene |
| --- | --- | --- | --- |
| CCCCN(CCCC)c1ccc([N+](=C2C=CC(=[N+](c3ccc(N(CCCC)CCCC)cc3)c3ccc(N(CCCC)CCCC)cc3)C=C2)c2ccc(N(CCCC)CCCC)cc2)cc1.[F][Sb-]([F])([F])([F])([F])[F].[F][Sb-]([F])([F])([F])([F])[F] [Comparative compound 4, reference compound] | C (transmittance at a wavelength of 1,150 nm was 50% or more) | C (transmittance at a wavelength of 1,150 nm was 50% or more) | C (transmittance at a wavelength of 1,150 nm was 50% or more) |
| Cc1ccc(N(c2ccc(C)cc2)c2ccc([N+](=C3C=CC(=[N+](c4ccc(N(c5ccc(C)cc5)c5ccc(C)cc5)cc4)c4ccc(N(c5ccc(C)cc5)c5ccc(C)cc5)cc4)C=C3)c3ccc(N(c4ccc(C)cc4)c4ccc(C)cc4)cc3)cc2)cc1.O=S(=O)([C-](S(=O)(=O)C(F)(F)F)S(=O)(=O)C(F)(F)F)C(F)(F)F.O=S(=O)([C-](S(=O)(=O)C(F)(F)F)S(=O)(=O)C(F)(F)F)C(F)(F)F [A-34] | A (transmittance at a wavelength of 1,150 nm was less than 10%) | A (transmittance at a wavelength of 1,150 nm was less than 10%) | A (transmittance at a wavelength of 1,150 nm was less than 10%) |
| Cc1ccc(N(c2ccc(C)cc2)c2ccc([N+](=C3C=CC(=[N+](c4ccc(N(c5ccc(C)cc5)c5ccc(C)cc5)cc4)c4ccc(N(c5ccc(C)cc5)c5ccc(C)cc5)cc4)C=C3)c3ccc(N(c4ccc(C)cc4)c4ccc(C)cc4)cc3)cc2)cc1 [A-35] | A (transmittance at a wavelength of 1,150 nm was less than 10%) | A (transmittance at a wavelength of 1,150 nm was less than 10%) | A (transmittance at a wavelength of 1,150 nm was less than 10%) |
| Cc1cc(C)c(N(c2ccc([N+](=C3C=CC(=[N+](c4ccc(N(c5c(C)cc(C)cc5C)c5c(C)cc(C)cc5C)cc4)c4ccc(N(c5c(C)cc(C)cc5C)c5c(C)cc(C)cc5C)cc4)C=C3)c3ccc(N(c4c(C)cc(C)cc4C)c4c(C)cc(C)cc4C)cc3)cc2)c2c(C)cc(C)cc2C)c(C)c1.Fc1c(F)c(F)c([B-](c2c(F)c(F)c(F)c(F)c2F)(c2c(F)c(F)c(F)c(F)c2F)c2c(F)c(F)c(F)c(F)c2F)c(F)c1F.Fc1c(F)c(F)c([B-](c2c(F)c(F)c(F)c(F)c2F)(c2c(F)c(F)c(F)c(F)c2F)c2c(F)c(F)c(F)c(F)c2F)c(F)c1F [A-44] | A (transmittance at a wavelength of 1,150 nm was less than 10%) | A (transmittance at a wavelength of 1,150 nm was less than 10%) | A (transmittance at a wavelength of 1,150 nm was less than 10%) |
| CCCCN(CCCC)c1ccc(N(c2ccc(N(CCCC)CCCC)cc2)c2ccc([N+](=C3C=CC(=[N+](c4ccc(N(c5ccc(N(CCCC)CCCC)cc5)c5ccc(N(CCCC)CCCC)cc5)cc4)c4ccc(N(c5ccc(N(CCCC)CCCC)cc5)c5ccc(N(CCCC)CCCC)cc5)cc4)C=C3)c3ccc(N(c4ccc(N(CCCC)CCCC)cc4)c4ccc(N(CCCC)CCCC)cc4)cc3)cc2)cc1.[F][Sb-]([F])([F])([F])([F])[F].[F][Sb-]([F])([F])([F])([F])[F] [Comparative compound 3, reference compound] | C (transmittance at a wavelength of 1,150 nm was 50% or more) | C (transmittance at a wavelength of 1,150 nm was 50% or more) | C (transmittance at a wavelength of 1,150 nm was 50% or more) |
| Cc1ccc(N(c2ccc(C)cc2)c2ccc([N+](=C3C=CC(=[N+](c4ccc(N(c5ccc(C)cc5)c5ccc(C)cc5)cc4)c4ccc(N(c5ccc(C)cc5)c5ccc(C)cc5)cc4)C=C3)c3ccc(N(c4ccc(C)cc4)c4ccc(C)cc4)cc3)cc2)cc1 [A-28] | A (transmittance at a wavelength of 1,150 nm was less than 10%) | B (transmittance at a wavelength of 1,150 nm was 10% or more and less than 50%) | A (transmittance at a wavelength of 1,150 nm was less than 10%) |
| Cc1ccc(N(c2ccc(C)cc2)c2ccc([N+](=C3C=CC(=[N+](c4ccc(N(c5ccc(C)cc5)c5ccc(C)cc5)cc4)c4ccc(N(c5ccc(C)cc5)c5ccc(C)cc5)cc4)C=C3)c3ccc(N(c4ccc(C)cc4)c4ccc(C)cc4)cc3)cc2)cc1 [A-31] | A (transmittance at a wavelength of 1,150 nm was less than 10%) | A (transmittance at a wavelength of 1,150 nm was less than 10%) | A (transmittance at a wavelength of 1,150 nm was less than 10%) |
| Cc1ccc(N(c2ccc(C)cc2)c2ccc([N+](=C3C=CC(=[N+](c4ccc(N(c5ccc(C)cc5)c5ccc(C)cc5)cc4)c4ccc(N(c5ccc(C)cc5)c5ccc(C)cc5)cc4)C=C3)c3ccc(N(c4ccc(C)cc4)c4ccc(C)cc4)cc3)cc2)cc1.c1ccc([B-](c2ccccc2)(c2ccccc2)c2ccccc2)cc1.c1ccc([B-](c2ccccc2)(c2ccccc2)c2ccccc2)cc1 [A-36] | A (transmittance at a wavelength of 1,150 nm was less than 10%) | A (transmittance at a wavelength of 1,150 nm was less than 10%) | A (transmittance at a wavelength of 1,150 nm was less than 10%) |
| Cc1ccc(N(c2ccc(C)cc2)c2ccc([N+](=C3C=CC(=[N+](c4ccc(N(c5ccc(C)cc5)c5ccc(C)cc5)cc4)c4ccc(N(c5ccc(C)cc5)c5ccc(C)cc5)cc4)C=C3)c3ccc(N(c4ccc(C)cc4)c4ccc(C)cc4)cc3)cc2)cc1 [Comparative compound 2, reference compound] | C (transmittance at a wavelength of 1,150 nm was 50% or more) | C (transmittance at a wavelength of 1,150 nm was 50% or more) | C (transmittance at a wavelength of 1,150 nm was 50% or more) |
